The other results are listed elsewhere or left out. Further columns of the screen follow, without active or inactive calls. Most of these compounds were active or inconclusive in the main read-out, so they are no random draw. Words in brackets tell the shape of the fitted curve; partial curves, single points and poor fits give uncertain potencies.
Assay: qHTS Assay for Lipid Storage Modulators in Drosophila S3 Cells;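 for cell number change: cells counted by Cell Tracker Red CMTPX staining in the red channel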
Conditions: BODIPY lipid droplet fluorescence, 18-24 h; for cell number change: measured here: cell count max response, cells fed with added oleic acid
In short: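 Drosophila S3 cells got compounds at several concentrations plus oleic acid (400 uM solution). Laser-scanning cytometry with 488 nm excitation read lipid droplets at 500-530 nm and cells at 575-640 nm. Percent activity was relative to 20 uM Triacsin C.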

[1] = measured here: cell number channel AC50, cells fed with added oleic acid
[2] = measured here: lipid fluorescence (Fed channel) AC50, cells fed with added oleic acid

SMILES	cell number change [%]	AC50 [1]	AC50 [2]
Cc1ccc(CNC(=O)CS(=O)Cc2nc(-c3ccccc3C)oc2C)cc1 (stereo unspecified)	79.2	20.6 µM [rising, single point]	0.82 µM [rising, single point]
CCn1cc(S(=O)(=O)CC(=O)Nc2cc(C)on2)c2ccccc21	-16		0.82 µM [falling, full curve, poor fit]
Cc1ccccc1NC(=O)c1cc(S(=O)(=O)N2CCOCC2)cs1	-5.36		1.3 µM [rising, partial curve]
Cc1cccc(COc2ccccc2/C=N/Nc2ccc([N+](=O)[O-])cc2)c1	11.9		6.51 µM [rising, single point]
CC(CCc1ccccc1)NC(=O)CNC(=O)c1ccccc1Br (stereo unspecified)	-15.1		0.58 µM [rising, single point]
COc1cccc(CNC(=O)CCN2C(=S)NC(C)(C)CC2C)c1 (stereo unspecified)	-32.4	32.6 µM [falling, single point]	29.1 µM [falling, single point]
COCCNC(=O)/C(C#N)=C/C(C)=C/c1ccccc1	20		23.1 µM [falling, single point]
CC1Cc2ccccc2N1C1=CC(=O)CCC1 (stereo unspecified)	34.3		
CCCc1nc(N)c(C#N)c(-c2cccnc2)c1CC	2.04		0.116 µM [rising, full curve, poor fit]
O=c1c2[nH]c3ccccc3c2ncn1Cc1cccnc1	-12.9		0.731 µM [falling, single point]
CCN1CCN(C(CC(C)C)c2nnnn2CS(=O)(=O)c2ccc(C)cc2)CC1 (stereo unspecified)	-31.7	25.9 µM [falling, partial curve]	
Cc1nnsc1NC(=O)OCc1ccc(Cl)cc1Cl			32.6 µM [rising, single point]
CCc1nnc(NC(=O)CCC(=O)N2CCN(c3cccc(Cl)c3)CC2)s1	15.5		
COc1cc2c(cc1OC)C(c1ccsc1)CC(=O)N2 (stereo unspecified)	13.3		29.1 µM [rising, single point]
Cc1cc(NC(=O)CSCC(=O)OCC(=O)Nc2cc(C)c(C)cc2[N+](=O)[O-])no1	-14.7		2.06 µM [falling, partial curve, poor fit]
O=C(Oc1ccccc1C(=O)Nc1ccccc1)c1ccc(Br)c([N+](=O)[O-])c1	-39.2	3.66 µM [falling, partial curve]	2.91 µM [falling, full curve]
CC(Oc1ccc(C#N)cc1)C(=O)NC1CCCC1 (stereo unspecified)	-13.4		1.46 µM [falling, partial curve, poor fit]
CN(C)CCCNC1CS(=O)(=O)CC1O (stereo unspecified)	30.3		
O=S(=O)(c1cccc(NC(=S)N2CCN(c3ccc(F)cc3)CC2)c1)C(F)F	19.1		0.164 µM [rising, full curve, poor fit]
CCOC(=O)NC(=O)/C(C#N)=C\Nc1sccc1C(=O)OC		0.58 µM [falling, single point]	
COC(=O)c1c(NC(=O)c2ccco2)sc(C(=O)Nc2ccc(F)cc2)c1C	6.7		0.146 µM [rising, full curve, poor fit]

SMILES	cell number change [%]	AC50 [1]	AC50 [2]
Cc1ccc2nc(C3CCN(C(=O)c4ccco4)CC3)[nH]c2c1	13.8		5.17 µM [rising, partial curve]
Cc1cc(NC(=O)Cn2c(=O)oc3ccc(Cl)cc32)no1	35.1	29.1 µM [rising, single point]	29.1 µM [rising, single point]
CC1(C)CC(=O)N(CC(=O)NCc2ccc(F)cc2)c2ccccc2S1(=O)=O	-6.59		
COc1ccc(C)cc1NC(=O)C1CCN(S(=O)(=O)c2ccc3c(c2)NC(=O)CO3)CC1	13.3		4.11 µM [falling, full curve]
Cc1ccc(-c2nc(=S)c3c(n2Cc2cccnc2)CC(C)(C)OC3)cc1	17.7	2.31 µM [rising, single point]	
CSCCC(NC(=O)c1ccc(C(C)(C)C)cc1)C(=O)OCC(=O)N1CCCC1=O (stereo unspecified)	3.82	6.51 µM [falling, partial curve, poor fit]	6.51 µM [falling, partial curve, poor fit]
CCOC(=O)c1cc(-c2cccnc2)nn1-c1ccccn1		2.31 µM [rising, partial curve, poor fit]	1.3 µM [rising, partial curve]
COc1ccc(C(=O)NCCNC(=O)c2cnccn2)cc1	13.2		5.62 µM [falling, single point]
O=C(CSc1cccc[n+]1[O-])Nc1cccc(S(=O)(=O)NC2=NCCCCC2)c1	17.3		
COc1ccc(C)cc1NC(=O)NCc1ccccn1	16.8		16.4 µM [rising, single point]
CS(=O)(=O)N(CC(=O)Nc1cccc(Cl)c1Cl)c1ccccc1	47.1	8.2 µM [rising, partial curve]	
O=C1C2C3C=CC(C4CC34)C2C(=O)N1/N=C/c1ccc(-c2ccccc2[N+](=O)[O-])o1 (stereo unspecified)	-11.5		2.31 µM [rising, partial curve]
CCOC(=O)c1[nH]c2ccc(OC)cc2c1NC(=O)c1ccccc1C(=O)O	-13.9	0.13 µM [falling, full curve, poor fit]	
O=C(NC(=S)N1CCN(C/C=C/c2ccccc2)CC1)c1ccco1	-17.2		20.6 µM [falling, single point]
Cc1cc(F)ccc1S(=O)(=O)Nc1ccc(C(=O)N2CCCCCC2)cc1	-26.9	0.146 µM [falling, full curve, poor fit]	20.6 µM [falling, single point]
O=C(NCc1ccco1)c1cnccn1	9.39	0.116 µM [rising, full curve, poor fit]	
O=C(N=Nc1c(O)[nH]c2ccc(Br)cc12)c1cc(-c2cccc3ccccc23)n[nH]1	-66.7	29.1 µM [falling, single point]	
CCOc1ncccc1C(=O)NCc1ccc(OC)cc1	98.6	14.6 µM [rising, partial curve]	6.51 µM [rising, single point]
O=C(NC1CCCC1)C1CCN(C(=O)Nc2cccc(Cl)c2)CC1	7.26		0.58 µM [falling, single point]
C=CCn1c(NCCOC)nc2c1c(=O)n(C)c(=O)n2C	4.04		
CN(C)C(=S)Oc1ccccc1-c1ccccc1OC(=S)N(C)C	12.3		29.1 µM [rising, single point]

3 compounds from above, ordered by number of heavy atoms, falling.
SMILES	cell number change [%]	AC50 [1]	AC50 [2]
O=C(NC(=S)N1CCN(C/C=C/c2ccccc2)CC1)c1ccco1	-17.2		20.6 µM [falling, single point]
Cc1ccc2nc(C3CCN(C(=O)c4ccco4)CC3)[nH]c2c1	13.8		5.17 µM [rising, partial curve]
CCOC(=O)NC(=O)/C(C#N)=C\Nc1sccc1C(=O)OC		0.58 µM [falling, single point]	

Already shown: entries from further up.
SMILES	cell number change [%]	AC50 [1]	AC50 [2]
COc1ccc(C(=O)NCCNC(=O)c2cnccn2)cc1	13.2		5.62 µM [falling, single point]
O=C(CSc1cccc[n+]1[O-])Nc1cccc(S(=O)(=O)NC2=NCCCCC2)c1	17.3		

Following part:

SMILES	cell number change [%]	AC50 [1]	AC50 [2]
Cc1c(CCC(=O)O)c(=O)oc2cc(O)ccc12	4.91		
CCN(CC)CCCNC(=O)c1[nH]c2ccccc2c1Sc1ccc(Cl)cc1	-23.6		29.1 µM [rising, single point]
COc1ccccc1CNC(=O)CN(Cc1ccc(Cl)cc1)S(C)(=O)=O	-15.1		
CCCC(C)NC(=O)CN(Cc1ccco1)S(=O)(=O)c1ccccc1 (stereo unspecified)	-18.5		29.1 µM [falling, single point]
COc1cc(C)c(S(=O)(=O)NCc2ccc3c(c2)OCO3)cc1C	93.5	2.31 µM [rising, full curve]	2.06 µM [rising, full curve]
Cc1ccc(-n2nc(C)c(Sc3ccccc3[N+](=O)[O-])c2N)cc1	18.6		29.1 µM [rising, single point]
N#Cc1ccc(CNc2cnccn2)cc1	-21	0.00461 µM [rising, full curve, poor fit]	
Cc1cc(C)cc(NC(=O)CCC(=O)N2CCSc3ccccc32)c1	18.7		
O=C(CN1CCN(Cc2ccccc2Cl)C1=O)NC1CCCCCC1	3.88		3.26 µM [rising, single point]
CCCc1nn(C)c2c(=O)[nH]c(-c3ccccc3OCC)nc12	-6.27		0.13 µM [rising, full curve, poor fit]
O=C(CCc1c[nH]c2ccccc12)NC1CC1	16.2		0.651 µM [falling, single point]
O=C(NC(=S)Nc1ccccc1Br)C1CCC1	-23.8		1.64 µM [rising, partial curve]
N=c1c2c(n(Cc3cccc(Cl)c3)c3c1CCC3)CCCC2	-67.4	20.6 µM [falling, single point]	29.1 µM [falling, single point]
COc1ccc(CN2CCCC(C(=O)N3CCCC3)C2)c(OC)c1 (stereo unspecified)	16.6		1.3 µM [falling, partial curve]
COC(=O)CNC(=O)COc1ccccc1			29.1 µM [falling, partial curve]
COc1ccc(Nc2ncnc3c2cnn3-c2ccccc2)cc1OC	-5.03		0.0651 µM [rising, full curve, poor fit]
Cc1nn(C(C)C(=O)N2CCN(c3ccccn3)CC2)c(=O)c2cc3occc3n12 (stereo unspecified)	-6.5		
Cc1ccccc1NC(=O)CSc1nc2cc3c(cc2cc1C)CCC3	5.46		
O=C(c1ccc2nc3ccccc3c(=O)n2c1)N1CCN(Cc2ccc3c(c2)OCO3)CC1	-14.4		29.1 µM [rising, single point]
c1ccc2c(c1)CC1(CCCC1)n1nnnc1-2	-14.2		0.00517 µM [falling, full curve, poor fit]
CCN(C(=O)c1cc(S(=O)(=O)N2CCc3ccccc32)cn1C)c1ccccc1	-5.19		2.91 µM [falling, partial curve, poor fit]
